Article PMC3180291

Chains of the proteins cited; added tags and fusions are not shown.
UniProt P08515, whole entry: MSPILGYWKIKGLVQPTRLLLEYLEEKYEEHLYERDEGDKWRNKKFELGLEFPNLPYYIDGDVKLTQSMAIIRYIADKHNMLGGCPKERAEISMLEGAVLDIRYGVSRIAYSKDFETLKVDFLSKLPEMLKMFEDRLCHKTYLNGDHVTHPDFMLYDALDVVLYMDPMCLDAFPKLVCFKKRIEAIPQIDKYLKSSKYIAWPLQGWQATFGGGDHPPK

Legend:
[1] = tested on: GST-OsDERF1; assay: EMSA; conditions: 5 mM Mg2+, poly(dI-dC), shift fully competed by excess unlabeled probe; 10 mM Tris pH 7.5, 50 mM KCl, 1 mM DTT, 2.5% glycerol, 0.05% NP-40, 5 mM MgCl2, 0.5 mM EDTA, 5 ng/mL poly(dI-dC), 30 ng protein, 1 ng DNA, 15 min room temperature; recombinant protein; protein details: N-terminal GST (pGEX-4T-1); label: 3'-DIG
[2] = molecular target: GST (UniProt P08515); assay: EMSA; conditions: tag control; 10 mM Tris pH 7.5, 50 mM KCl, 1 mM DTT, 2.5% glycerol, 0.05% NP-40, 5 mM MgCl2, 0.5 mM EDTA, 5 ng/mL poly(dI-dC), 30 ng protein, 1 ng DNA, 15 min room temperature; recombinant protein; label: 3'-DIG

| Sequence | binding result [1] | binding result [2] |
| --- | --- | --- |
| CGCGCGACACCACCATTCGCTTCGCCGCCTACCTGACGCGAAAAT (double strand) [OsAP2-39-p5 GCC box probe] | binds |  |
| GAAAAGCGCTCGCCTAATTTTAATGCCGCCTCGCTAAAGACGAGGGGCGGCGGCAAGGAG (double strand) [OsERF3-p4 GCC box probe] | binds | no binding |

Construct, isoform or probe ends are uncertain for at least one entry. For part of these data: Negatives hold for the conditions tested.
